Experimental data: patent US10391098B2, “Antisense antibacterial compounds and methods” (priority 2014, dated 2019)

Tested on: E. coli SMS-3-5
Assay: MIC of classical antibiotics with added PPMOs that target resistance genes
Assay type: cell-based
Settings: Escherichia coli, SMS35; ampicillin alone
Excerpt: FIGS. 15A-15B show the minimum inhibitory concentration (MIC) of classical antibiotics with added PPMOs that target resistance genes in E. coli SMS-3-5. (FIG. 15A) MIC of ampicillin with blaT-(RXR)4XB (PPMO#66). (FIG. 15B) MIC of chloramphemicol with cmlA-(RXR)4XB (PPMO#67). N=3.
Minimal Inhibitory Concentration Assays.
Modulating antibiotic resistance with PPMOs could be an alternative therapeutic strategy. As proof of concept, PPMOs were designed to target specific, non-essential antibiotic resistance genes. blaT is part of the TEM beta-lactamase family and is found in environmental strains of E. coli, like SMS-3-5.

SMILES: CC1(C)S[C@@H]2[C@H](NC(=O)[C@H](N)c3ccccc3)C(=O)N2[C@H]1C(=O)O [ampicillin, reference compound]
- MIC: > 1020 µg/mL
